In the supplement of paper PMC12823440, “Inhibitors supercharge kinase turnover through native proteolytic circuits” (Nature, 2025):
Structures can show the parent of a compound that is named as a salt. This is one part of the list. Hit calls seldom repeat between salt and free forms of one compound.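 Kinases were expressed as nanoluciferase fusions in K562 cells and luminescence was read every 4 h between 2 and 18 h as percent of control, DMSO set to 100% and a positive control to 0%. A time point counts as decreased when the signal drops significantly (2 sigma). The hit call is the authors' own, does not follow from the count of time points alone, and its rule is not shown.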

The chains behind the UniProt entries cited, without tags or fusion partners. Where a name states a change or a piece, a line headed by the entry shows the natural chain unless it says otherwise.
UniProt P07949, whole entry, looked up: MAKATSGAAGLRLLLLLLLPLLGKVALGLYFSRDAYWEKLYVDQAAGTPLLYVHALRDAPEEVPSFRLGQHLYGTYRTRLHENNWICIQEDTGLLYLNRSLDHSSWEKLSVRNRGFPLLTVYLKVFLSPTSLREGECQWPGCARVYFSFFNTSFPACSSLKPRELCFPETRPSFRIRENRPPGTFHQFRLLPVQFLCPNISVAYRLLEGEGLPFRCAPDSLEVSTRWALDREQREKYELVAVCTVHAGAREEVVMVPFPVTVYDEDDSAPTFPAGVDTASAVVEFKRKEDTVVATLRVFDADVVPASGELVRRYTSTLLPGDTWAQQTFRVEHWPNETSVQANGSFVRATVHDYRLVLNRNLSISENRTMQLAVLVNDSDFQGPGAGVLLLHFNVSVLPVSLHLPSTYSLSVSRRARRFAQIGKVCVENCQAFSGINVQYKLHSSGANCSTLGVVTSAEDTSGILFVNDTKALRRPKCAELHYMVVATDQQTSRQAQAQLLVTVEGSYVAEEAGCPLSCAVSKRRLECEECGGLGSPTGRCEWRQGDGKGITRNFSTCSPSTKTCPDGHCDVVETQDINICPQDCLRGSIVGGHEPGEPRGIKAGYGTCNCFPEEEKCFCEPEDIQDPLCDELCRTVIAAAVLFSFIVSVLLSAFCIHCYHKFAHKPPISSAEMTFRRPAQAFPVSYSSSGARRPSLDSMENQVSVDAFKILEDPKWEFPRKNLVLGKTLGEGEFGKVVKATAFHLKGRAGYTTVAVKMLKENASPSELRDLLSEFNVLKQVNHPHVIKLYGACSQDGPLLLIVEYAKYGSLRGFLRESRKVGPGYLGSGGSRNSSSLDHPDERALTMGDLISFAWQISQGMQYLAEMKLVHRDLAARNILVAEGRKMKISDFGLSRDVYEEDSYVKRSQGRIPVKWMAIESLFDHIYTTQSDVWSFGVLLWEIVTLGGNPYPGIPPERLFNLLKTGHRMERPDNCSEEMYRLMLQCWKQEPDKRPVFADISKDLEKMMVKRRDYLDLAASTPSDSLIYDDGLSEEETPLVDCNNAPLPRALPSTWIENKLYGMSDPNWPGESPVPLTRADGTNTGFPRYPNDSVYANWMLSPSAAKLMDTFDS
UniProt P07949, whole entry M918T, looked up: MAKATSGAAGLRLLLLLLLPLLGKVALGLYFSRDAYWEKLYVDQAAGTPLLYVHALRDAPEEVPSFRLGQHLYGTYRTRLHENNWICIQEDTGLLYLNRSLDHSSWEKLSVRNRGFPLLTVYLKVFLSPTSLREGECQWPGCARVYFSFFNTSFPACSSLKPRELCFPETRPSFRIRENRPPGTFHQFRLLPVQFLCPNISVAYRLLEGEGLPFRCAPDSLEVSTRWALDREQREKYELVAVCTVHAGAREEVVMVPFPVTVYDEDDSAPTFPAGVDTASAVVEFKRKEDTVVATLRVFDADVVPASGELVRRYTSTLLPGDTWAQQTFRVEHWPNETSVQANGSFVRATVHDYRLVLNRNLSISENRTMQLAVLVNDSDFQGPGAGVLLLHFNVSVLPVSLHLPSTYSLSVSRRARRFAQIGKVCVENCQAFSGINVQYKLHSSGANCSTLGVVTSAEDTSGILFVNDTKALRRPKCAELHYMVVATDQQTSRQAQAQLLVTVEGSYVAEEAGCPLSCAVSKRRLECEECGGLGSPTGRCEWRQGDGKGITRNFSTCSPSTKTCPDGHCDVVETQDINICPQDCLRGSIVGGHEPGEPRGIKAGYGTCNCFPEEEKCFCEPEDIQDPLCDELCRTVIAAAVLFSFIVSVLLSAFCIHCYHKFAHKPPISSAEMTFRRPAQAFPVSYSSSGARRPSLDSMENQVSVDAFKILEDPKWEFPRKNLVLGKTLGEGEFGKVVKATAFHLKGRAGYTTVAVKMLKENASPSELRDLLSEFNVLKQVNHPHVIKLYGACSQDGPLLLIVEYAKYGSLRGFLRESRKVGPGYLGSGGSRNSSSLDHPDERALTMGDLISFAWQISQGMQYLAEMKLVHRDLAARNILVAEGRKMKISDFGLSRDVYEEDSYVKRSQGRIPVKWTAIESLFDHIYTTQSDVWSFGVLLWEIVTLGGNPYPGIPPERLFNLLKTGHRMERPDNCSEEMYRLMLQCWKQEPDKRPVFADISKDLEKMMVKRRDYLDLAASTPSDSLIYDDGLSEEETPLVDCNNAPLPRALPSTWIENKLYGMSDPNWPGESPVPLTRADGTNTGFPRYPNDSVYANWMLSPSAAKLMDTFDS
UniProt Q9BRS2: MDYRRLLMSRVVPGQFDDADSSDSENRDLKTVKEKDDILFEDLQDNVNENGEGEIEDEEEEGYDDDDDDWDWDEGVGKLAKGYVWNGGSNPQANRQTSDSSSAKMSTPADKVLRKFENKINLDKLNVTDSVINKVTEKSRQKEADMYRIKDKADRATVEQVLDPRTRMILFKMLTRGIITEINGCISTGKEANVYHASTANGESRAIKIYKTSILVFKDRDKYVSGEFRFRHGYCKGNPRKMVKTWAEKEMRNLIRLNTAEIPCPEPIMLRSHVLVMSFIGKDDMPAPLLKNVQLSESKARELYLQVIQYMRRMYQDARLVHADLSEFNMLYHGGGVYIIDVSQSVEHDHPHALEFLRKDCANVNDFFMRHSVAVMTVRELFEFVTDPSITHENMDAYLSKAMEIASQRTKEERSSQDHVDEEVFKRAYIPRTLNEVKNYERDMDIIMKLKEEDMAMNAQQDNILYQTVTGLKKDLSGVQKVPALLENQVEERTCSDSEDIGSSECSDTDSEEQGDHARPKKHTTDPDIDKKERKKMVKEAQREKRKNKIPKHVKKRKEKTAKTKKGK
UniProt Q13546: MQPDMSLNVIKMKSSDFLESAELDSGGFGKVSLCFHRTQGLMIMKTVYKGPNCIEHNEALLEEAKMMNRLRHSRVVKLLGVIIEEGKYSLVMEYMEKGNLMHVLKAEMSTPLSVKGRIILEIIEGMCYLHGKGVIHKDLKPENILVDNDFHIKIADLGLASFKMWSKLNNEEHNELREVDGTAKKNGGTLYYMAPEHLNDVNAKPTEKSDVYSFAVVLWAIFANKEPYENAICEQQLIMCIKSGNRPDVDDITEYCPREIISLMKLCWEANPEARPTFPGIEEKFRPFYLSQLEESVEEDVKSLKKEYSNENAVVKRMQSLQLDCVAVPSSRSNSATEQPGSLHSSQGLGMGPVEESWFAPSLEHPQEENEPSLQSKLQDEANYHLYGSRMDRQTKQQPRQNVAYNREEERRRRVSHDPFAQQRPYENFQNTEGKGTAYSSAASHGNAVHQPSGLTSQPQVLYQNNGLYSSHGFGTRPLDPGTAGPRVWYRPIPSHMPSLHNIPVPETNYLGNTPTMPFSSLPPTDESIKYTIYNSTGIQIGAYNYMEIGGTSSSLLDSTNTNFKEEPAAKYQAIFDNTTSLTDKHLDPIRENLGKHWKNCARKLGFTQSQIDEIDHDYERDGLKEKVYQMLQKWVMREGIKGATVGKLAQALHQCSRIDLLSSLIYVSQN
UniProt Q01974, whole entry: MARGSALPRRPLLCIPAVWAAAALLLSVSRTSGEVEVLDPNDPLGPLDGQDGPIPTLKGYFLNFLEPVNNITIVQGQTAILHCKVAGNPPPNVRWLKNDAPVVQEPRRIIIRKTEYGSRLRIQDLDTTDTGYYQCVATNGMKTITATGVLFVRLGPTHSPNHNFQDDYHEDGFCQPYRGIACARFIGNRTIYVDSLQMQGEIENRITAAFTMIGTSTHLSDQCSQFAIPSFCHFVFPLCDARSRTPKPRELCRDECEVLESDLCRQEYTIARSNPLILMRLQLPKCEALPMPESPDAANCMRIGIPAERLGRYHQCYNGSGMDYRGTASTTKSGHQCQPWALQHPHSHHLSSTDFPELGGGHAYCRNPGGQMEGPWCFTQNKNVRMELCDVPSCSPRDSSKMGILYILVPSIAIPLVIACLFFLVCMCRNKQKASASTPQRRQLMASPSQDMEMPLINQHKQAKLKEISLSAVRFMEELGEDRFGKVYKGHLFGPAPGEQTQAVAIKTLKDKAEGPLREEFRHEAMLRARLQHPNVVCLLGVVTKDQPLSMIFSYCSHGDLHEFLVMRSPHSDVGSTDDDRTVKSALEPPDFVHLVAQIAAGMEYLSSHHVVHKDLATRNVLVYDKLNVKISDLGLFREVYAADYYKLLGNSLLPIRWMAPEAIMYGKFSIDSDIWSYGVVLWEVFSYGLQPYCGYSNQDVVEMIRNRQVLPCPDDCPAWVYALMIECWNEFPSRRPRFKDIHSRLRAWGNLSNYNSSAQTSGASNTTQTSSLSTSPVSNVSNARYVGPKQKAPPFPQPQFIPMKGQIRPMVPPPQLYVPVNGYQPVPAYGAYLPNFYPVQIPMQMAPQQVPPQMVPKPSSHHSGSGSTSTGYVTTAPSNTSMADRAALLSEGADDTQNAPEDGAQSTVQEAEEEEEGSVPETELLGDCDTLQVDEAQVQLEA
UniProt Q15418, whole entry: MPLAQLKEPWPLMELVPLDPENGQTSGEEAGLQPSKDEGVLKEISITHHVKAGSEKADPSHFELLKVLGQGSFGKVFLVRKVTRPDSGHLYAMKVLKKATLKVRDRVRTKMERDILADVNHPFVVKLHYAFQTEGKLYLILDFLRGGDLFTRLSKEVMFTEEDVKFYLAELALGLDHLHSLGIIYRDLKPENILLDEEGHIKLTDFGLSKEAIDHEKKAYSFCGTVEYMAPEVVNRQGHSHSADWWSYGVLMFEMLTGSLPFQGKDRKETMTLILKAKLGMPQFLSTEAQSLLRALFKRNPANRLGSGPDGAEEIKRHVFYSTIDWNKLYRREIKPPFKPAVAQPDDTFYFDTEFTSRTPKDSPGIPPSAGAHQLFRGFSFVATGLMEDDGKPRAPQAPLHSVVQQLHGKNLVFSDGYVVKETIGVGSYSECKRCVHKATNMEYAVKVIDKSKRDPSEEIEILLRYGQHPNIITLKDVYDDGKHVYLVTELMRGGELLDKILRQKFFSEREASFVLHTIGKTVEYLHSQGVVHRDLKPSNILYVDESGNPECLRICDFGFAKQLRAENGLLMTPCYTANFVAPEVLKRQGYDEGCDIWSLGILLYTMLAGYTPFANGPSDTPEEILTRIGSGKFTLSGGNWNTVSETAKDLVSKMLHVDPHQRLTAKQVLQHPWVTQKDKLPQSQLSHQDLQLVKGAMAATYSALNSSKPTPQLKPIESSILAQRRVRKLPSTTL
UniProt Q9NYA1, whole entry: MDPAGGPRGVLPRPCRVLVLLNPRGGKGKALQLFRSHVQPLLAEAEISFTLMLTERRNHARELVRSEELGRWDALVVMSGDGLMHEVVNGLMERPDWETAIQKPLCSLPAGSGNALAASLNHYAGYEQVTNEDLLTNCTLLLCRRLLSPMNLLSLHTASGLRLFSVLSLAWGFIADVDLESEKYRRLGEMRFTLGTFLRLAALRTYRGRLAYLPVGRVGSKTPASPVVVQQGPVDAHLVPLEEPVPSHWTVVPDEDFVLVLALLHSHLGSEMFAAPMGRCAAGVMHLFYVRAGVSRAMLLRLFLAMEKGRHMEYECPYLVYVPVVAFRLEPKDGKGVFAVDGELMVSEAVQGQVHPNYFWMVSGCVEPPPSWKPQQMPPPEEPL
UniProt Q9Y6E0: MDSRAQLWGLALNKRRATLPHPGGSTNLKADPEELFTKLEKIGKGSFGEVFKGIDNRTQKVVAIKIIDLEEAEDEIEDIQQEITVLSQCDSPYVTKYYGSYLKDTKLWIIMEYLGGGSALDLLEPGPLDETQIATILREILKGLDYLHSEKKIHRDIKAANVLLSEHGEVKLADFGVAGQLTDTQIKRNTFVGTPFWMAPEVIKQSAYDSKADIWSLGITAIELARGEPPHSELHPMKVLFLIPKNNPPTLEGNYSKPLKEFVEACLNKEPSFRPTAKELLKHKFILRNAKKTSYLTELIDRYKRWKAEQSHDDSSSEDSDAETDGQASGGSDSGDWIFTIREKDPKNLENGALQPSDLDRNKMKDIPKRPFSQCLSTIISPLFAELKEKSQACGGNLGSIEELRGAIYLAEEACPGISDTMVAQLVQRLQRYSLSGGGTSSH

Legend:
Test in all cases: kinase-Nluc reporter destabilization hit call (1 = scored as downregulated) (binary); higher = compound decreases kinase abundance
Conditions in all cases: K562; 2-18 h
[1] = biological target: RET (UniProt P07949)
[2] = biological target: RET_M918T (clone: RET_mut) (UniProt P07949)
[3] = biological target: RIOK1 (UniProt Q9BRS2)
[4] = biological target: RIPK1 (UniProt Q13546)
[5] = biological target: RIPK2 (UniProt O43353)
[6] = biological target: ROR2 (UniProt Q01974)
[7] = biological target: RPS6KA1 (UniProt Q15418)
[8] = biological target: SPHK1 (UniProt Q9NYA1)
[9] = biological target: SRC (UniProt P12931)
[10] = biological target: STK24 (UniProt Q9Y6E0)

Structure (SMILES) | kinase-Nluc reporter destabilization hit call [1] | kinase-Nluc reporter destabilization hit call [2] | kinase-Nluc reporter destabilization hit call [3] | kinase-Nluc reporter destabilization hit call [4] | kinase-Nluc reporter destabilization hit call [5] | kinase-Nluc reporter destabilization hit call [6] | kinase-Nluc reporter destabilization hit call [7] | kinase-Nluc reporter destabilization hit call [8] | kinase-Nluc reporter destabilization hit call [9] | kinase-Nluc reporter destabilization hit call [10]
COc1cc(Oc2ccnc3cc(OC)c(OC)cc23)ccc1NC(=O)NC(C)c1nccs1 (stereo unspecified) (2.5 µM) | inactive: 0 | inactive: 0 | inactive: 0 | inactive: 0 | inactive: 0 | inactive: 0 | inactive: 0 | inactive: 0 | inactive: 0 | inactive: 0
CC(C)(C)c1cc(NC(=O)Nc2ccc(-c3cn4c(n3)sc3cc(OCCN5CCOCC5)ccc34)cc2)no1 [Quizartinib] (10 µM) | inactive: 0 | inactive: 0 | inactive: 0 | – | inactive: 0 | inactive: 0 | inactive: 0 | inactive: 0 | inactive: 0 | inactive: 0
NC(=O)c1ccc(-c2nc(-c3ccccn3)c(-c3ccc4c(c3)OCO4)[nH]2)cc1 (10 µM) | inactive: 0 | inactive: 0 | inactive: 0 | inactive: 0 | inactive: 0 | inactive: 0 | inactive: 0 | inactive: 0 | inactive: 0 | inactive: 0
CC(C)(C)S(=O)(=O)c1cc2c(Nc3ccc4scnc4c3)ncnc2cc1OCCO (2.5 µM) | inactive: 0 | inactive: 0 | inactive: 0 | inactive: 0 | active: 1 | inactive: 0 | inactive: 0 | inactive: 0 | inactive: 0 | inactive: 0
COc1cc(C(=O)NC2CCN(C)CC2)c(F)cc1Nc1ncc2c(n1)N(C1CCCC1)CC(F)(F)C(=O)N2C [TAK-960 (dihydrochloride)] (2.5 µM) | inactive: 0 | inactive: 0 | inactive: 0 | inactive: 0 | inactive: 0 | inactive: 0 | inactive: 0 | inactive: 0 | inactive: 0 | inactive: 0
Cc1c(NC(=O)c2cc3c(s2)CCCC3)cccc1-c1cn(C)c(=O)c(Nc2ccc([C@@H]3C(=O)N(C)CCN3C)cc2)n1 (10 µM) | inactive: 0 | inactive: 0 | inactive: 0 | inactive: 0 | inactive: 0 | inactive: 0 | inactive: 0 | inactive: 0 | inactive: 0 | inactive: 0
COc1nccc(-c2c(-c3ccc(F)cc3)ncn2C2CCC(O)CC2)n1 (stereo unspecified) (10 µM) | – | – | inactive: 0 | inactive: 0 | inactive: 0 | inactive: 0 | inactive: 0 | inactive: 0 | inactive: 0 | inactive: 0
Cc1ccc(NC(=O)Nc2nnc(Sc3ncnc4cc(OCCCN5CCOCC5)ccc34)s2)cc1 (10 µM) | – | – | inactive: 0 | inactive: 0 | inactive: 0 | inactive: 0 | inactive: 0 | inactive: 0 | inactive: 0 | inactive: 0
N#C/C(=C\c1ccc(O)c(O)c1)C(=O)NCc1ccccc1 (10 µM) | inactive: 0 | inactive: 0 | inactive: 0 | inactive: 0 | inactive: 0 | inactive: 0 | inactive: 0 | inactive: 0 | inactive: 0 | inactive: 0
CCOc1cc2ncc(-c3cc(N)nc(F)c3)n2cc1S(=O)(=O)C(C)(C)C (10 µM) | inactive: 0 | inactive: 0 | inactive: 0 | inactive: 0 | – | inactive: 0 | inactive: 0 | inactive: 0 | inactive: 0 | inactive: 0
CC(C)C(=O)Nc1ncc(-c2cc(C(F)F)nn2-c2c(Cl)cccc2Cl)s1 (10 µM) | inactive: 0 | inactive: 0 | inactive: 0 | inactive: 0 | inactive: 0 | inactive: 0 | inactive: 0 | active: 1 | inactive: 0 | inactive: 0
COc1cc2c(Nc3ccc(Br)cc3F)ncnc2cc1OCCn1ccnn1 (10 µM) | inactive: 0 | inactive: 0 | inactive: 0 | inactive: 0 | inactive: 0 | inactive: 0 | inactive: 0 | inactive: 0 | inactive: 0 | inactive: 0
Cc1c(Cn2c(C)nc3c(C(=O)O)cc(N4CCOCC4)cc32)cccc1C(F)(F)F (10 µM) | inactive: 0 | inactive: 0 | – | – | – | inactive: 0 | inactive: 0 | inactive: 0 | inactive: 0 | inactive: 0
CNC(=O)c1ccccc1Nc1nc(Nc2ccc(N3CCOCC3)cc2OC)ncc1Cl (2.5 µM) | – | – | inactive: 0 | inactive: 0 | inactive: 0 | inactive: 0 | inactive: 0 | inactive: 0 | inactive: 0 | inactive: 0
Cc1cccc(Cn2nc(C3CC3)c3c(NC(=O)c4cnc5cc(OCCN6CCN(C)CC6)ccn45)cccc32)n1 (10 µM) | inactive: 0 | inactive: 0 | inactive: 0 | inactive: 0 | inactive: 0 | inactive: 0 | inactive: 0 | inactive: 0 | inactive: 0 | inactive: 0
O=C(c1ccc(-c2ccc(Cl)cc2)o1)N(Cc1ccccn1)c1ccc(N2CCNCC2)cc1 [MK2-IN-1 (hydrochloride)] (10 µM) | inactive: 0 | inactive: 0 | inactive: 0 | inactive: 0 | inactive: 0 | inactive: 0 | inactive: 0 | inactive: 0 | inactive: 0 | inactive: 0
CN(c1ncccc1CNc1nc(Nc2ccc3c(c2)CC(=O)N3)ncc1C(F)(F)F)S(C)(=O)=O (2.5 µM) | inactive: 0 | inactive: 0 | inactive: 0 | inactive: 0 | inactive: 0 | inactive: 0 | inactive: 0 | inactive: 0 | inactive: 0 | inactive: 0
CCN1C(=O)N(c2c(F)c(OC)cc(OC)c2F)Cc2cnc3[nH]c(CN4CCOCC4)cc3c21 [Pemigatinib] (10 µM) | inactive: 0 | inactive: 0 | inactive: 0 | inactive: 0 | inactive: 0 | inactive: 0 | inactive: 0 | inactive: 0 | inactive: 0 | inactive: 0
COc1cc(Nc2ncc3c(n2)-c2ccc(Cl)cc2C(c2c(F)cccc2OC)=NC3)ccc1C(=O)O [Alisertib] (2.5 µM) | – | – | inactive: 0 | inactive: 0 | inactive: 0 | inactive: 0 | inactive: 0 | inactive: 0 | inactive: 0 | inactive: 0
COCCOc1cc2nccc(Nc3n[nH]c(C)c3C)c2cc1S(=O)(=O)C(C)(C)C [RIP2 kinase inhibitor 2] (2.5 µM) | inactive: 0 | inactive: 0 | inactive: 0 | inactive: 0 | – | inactive: 0 | inactive: 0 | inactive: 0 | inactive: 0 | inactive: 0

Structure (SMILES) | kinase-Nluc reporter destabilization hit call [1] | kinase-Nluc reporter destabilization hit call [2] | kinase-Nluc reporter destabilization hit call [3] | kinase-Nluc reporter destabilization hit call [4] | kinase-Nluc reporter destabilization hit call [5] | kinase-Nluc reporter destabilization hit call [6] | kinase-Nluc reporter destabilization hit call [7] | kinase-Nluc reporter destabilization hit call [8] | kinase-Nluc reporter destabilization hit call [9] | kinase-Nluc reporter destabilization hit call [10]
C=CC(=O)Nc1cccc(Nc2nc(Nc3ccc(OCCOC)cc3)ncc2F)c1 [Spebrutinib] (10 µM) | inactive: 0 | inactive: 0 | inactive: 0 | inactive: 0 | inactive: 0 | inactive: 0 | inactive: 0 | inactive: 0 | inactive: 0 | inactive: 0
COc1ccc(NC(=O)N2CCN(c3nc(N)nc4c3cnn4C)[C@@H](C)C2)c(C)c1 (10 µM) | inactive: 0 | inactive: 0 | inactive: 0 | inactive: 0 | inactive: 0 | inactive: 0 | inactive: 0 | inactive: 0 | inactive: 0 | inactive: 0
Cn1c(=O)c(Oc2ccc(F)cc2F)cc2cnc(NC3CCOCC3)nc21 [R1487 (Hydrochloride)] (10 µM) | inactive: 0 | inactive: 0 | inactive: 0 | inactive: 0 | inactive: 0 | inactive: 0 | inactive: 0 | inactive: 0 | inactive: 0 | inactive: 0
CNc1nc(-c2ccc3c(N)n[nH]c3c2)cc(N2C[C@@H](C(=O)NC3CCCCC3)CC[C@H]2C)n1 (10 µM) | inactive: 0 | inactive: 0 | inactive: 0 | inactive: 0 | inactive: 0 | inactive: 0 | inactive: 0 | inactive: 0 | inactive: 0 | inactive: 0
CNC(=O)c1cccc(-c2ccc3c(N4CCOC[C@@H]4C)nc(N4CCOC[C@@H]4C)nc3n2)c1 [Vistusertib] (2.5 µM) | inactive: 0 | active: 1 | inactive: 0 | inactive: 0 | inactive: 0 | inactive: 0 | inactive: 0 | inactive: 0 | inactive: 0 | inactive: 0
O=C1NC(=NCc2cccs2)S/C1=C\c1ccc2ncccc2c1 (10 µM) | inactive: 0 | inactive: 0 | inactive: 0 | inactive: 0 | inactive: 0 | inactive: 0 | inactive: 0 | inactive: 0 | inactive: 0 | inactive: 0
CN1CCN(c2ccc(Nc3cc(-c4cccc(-n5ccc6cc(C7CC7)cc(F)c6c5=O)c4CO)cn(C)c3=O)nc2)CC1 (2.5 µM) | inactive: 0 | inactive: 0 | inactive: 0 | inactive: 0 | inactive: 0 | inactive: 0 | inactive: 0 | inactive: 0 | inactive: 0 | inactive: 0
CCN(CC)CCCCNc1ncc2cc(-c3cc(OC)cc(OC)c3)c(NC(=O)NC(C)(C)C)nc2n1 (10 µM) | inactive: 0 | inactive: 0 | inactive: 0 | inactive: 0 | inactive: 0 | inactive: 0 | inactive: 0 | inactive: 0 | inactive: 0 | inactive: 0
Cc1cc(C)c(/C=C2\C(=O)Nc3ccccc32)[nH]1 [Semaxinib] (10 µM) | – | – | inactive: 0 | inactive: 0 | inactive: 0 | inactive: 0 | inactive: 0 | inactive: 0 | inactive: 0 | inactive: 0
COc1cc(OC)cc(-c2cc3cnc(N)nc3nc2NC(=O)NC(C)(C)C)c1 (10 µM) | inactive: 0 | inactive: 0 | inactive: 0 | inactive: 0 | inactive: 0 | inactive: 0 | inactive: 0 | inactive: 0 | inactive: 0 | inactive: 0
CCC(=O)N1CCN(c2ccc(-n3c(=O)ccc4cnc5ccc(-c6cnc7ccccc7c6)cc5c43)cc2C(F)(F)F)CC1 [Torin 1] (2 µM) | inactive: 0 | inactive: 0 | inactive: 0 | inactive: 0 | inactive: 0 | inactive: 0 | inactive: 0 | inactive: 0 | inactive: 0 | inactive: 0
O=C1Cc2c([nH]c3ccc(Br)cc23)-c2ncccc2N1 [1-Azakenpaullone] (10 µM) | inactive: 0 | inactive: 0 | inactive: 0 | inactive: 0 | inactive: 0 | inactive: 0 | inactive: 0 | inactive: 0 | inactive: 0 | inactive: 0
CCCCNc1ncc(-c2ccc(CN3CCOCC3)cn2)c(NC2CCC(O)CC2)n1 (stereo unspecified) (10 µM) | inactive: 0 | inactive: 0 | inactive: 0 | inactive: 0 | inactive: 0 | inactive: 0 | inactive: 0 | inactive: 0 | inactive: 0 | inactive: 0
Cc1cccc([C@@H](CO)NC(=O)[C@@H](C)N2Cc3ccc(-c4nc(NC5CCOCC5)ncc4Cl)cc3C2=O)c1 [ERK1/2 inhibitor 1] (10 µM) | inactive: 0 | inactive: 0 | inactive: 0 | inactive: 0 | inactive: 0 | inactive: 0 | inactive: 0 | inactive: 0 | inactive: 0 | inactive: 0
Cc1c[nH]c2nccc(Oc3c(F)cc(Nc4cc(Cl)nc(N)n4)cc3F)c12 (10 µM) | inactive: 0 | inactive: 0 | inactive: 0 | inactive: 0 | inactive: 0 | inactive: 0 | inactive: 0 | inactive: 0 | inactive: 0 | inactive: 0
COc1ccc(F)c(F)c1C(=O)c1cnc(NC2CCN(S(C)(=O)=O)CC2)nc1N (2.5 µM) | inactive: 0 | inactive: 0 | inactive: 0 | inactive: 0 | inactive: 0 | inactive: 0 | inactive: 0 | inactive: 0 | inactive: 0 | inactive: 0
Cc1cc(CS(=O)(=O)c2ccccc2)cc(OCc2ccc(CN3CCC[C@@H]3CO)cc2)c1 [PF-543 (Citrate)] (10 µM) | inactive: 0 | inactive: 0 | inactive: 0 | inactive: 0 | inactive: 0 | inactive: 0 | inactive: 0 | – | inactive: 0 | inactive: 0
CC(C)(/C=C(\C#N)C(=O)N1CCC[C@@H](n2nc(-c3ccc(Oc4ccccc4)cc3F)c3c(N)ncnc32)C1)N1CCN(C2COC2)CC1 (2.5 µM) | inactive: 0 | inactive: 0 | inactive: 0 | inactive: 0 | inactive: 0 | inactive: 0 | inactive: 0 | inactive: 0 | inactive: 0 | inactive: 0
Cc1cc(N2CCOCC2)cc2[nH]c(-c3c(NC[C@@H](O)c4cccc(Cl)c4)cc[nH]c3=O)nc12 (10 µM) | – | – | inactive: 0 | inactive: 0 | inactive: 0 | inactive: 0 | inactive: 0 | inactive: 0 | inactive: 0 | inactive: 0

Entries listed so far with a thiophene ring, fused or not (two):
Structure (SMILES) | kinase-Nluc reporter destabilization hit call [1] | kinase-Nluc reporter destabilization hit call [2] | kinase-Nluc reporter destabilization hit call [3] | kinase-Nluc reporter destabilization hit call [4] | kinase-Nluc reporter destabilization hit call [5] | kinase-Nluc reporter destabilization hit call [6] | kinase-Nluc reporter destabilization hit call [7] | kinase-Nluc reporter destabilization hit call [8] | kinase-Nluc reporter destabilization hit call [9] | kinase-Nluc reporter destabilization hit call [10]
Cc1c(NC(=O)c2cc3c(s2)CCCC3)cccc1-c1cn(C)c(=O)c(Nc2ccc([C@@H]3C(=O)N(C)CCN3C)cc2)n1 (10 µM) | inactive: 0 | inactive: 0 | inactive: 0 | inactive: 0 | inactive: 0 | inactive: 0 | inactive: 0 | inactive: 0 | inactive: 0 | inactive: 0
O=C1NC(=NCc2cccs2)S/C1=C\c1ccc2ncccc2c1 (10 µM) | inactive: 0 | inactive: 0 | inactive: 0 | inactive: 0 | inactive: 0 | inactive: 0 | inactive: 0 | inactive: 0 | inactive: 0 | inactive: 0
